In PubChem BioAssay AID256 (DTP/NCI, 2004):
The list does not hold the whole screen: its compounds were picked by chemical class. Not every dose and run of a compound is shown. T/C is the treated group as % of the vehicle group. Some entries give survivors of the animals treated and no T/C: the source files T/C as zero there, which appears to mark a toxic dose or a test without result, not a measured value. Some survivor counts are full or nearly so, which does not show that the dose was tolerated: survival well below the control is almost never listed, so the zero probably covers shortened survival too. Survivors were counted at the toxicity check, usually on the fifth day, unless a day is given; later deaths do not show. Schedules are NCI's codes, taken here to give the interval after Q, in days (D) or hours (H), and the number of doses after X. For survival time, the PubChem record calls one and a half times the control and up active, and a quarter to a half above the control has no call in these data; cut-offs in other NCI protocols can differ. Some T/C values are followed by the survivors on the day toxicity was checked, most often the fifth; where neither a count nor a note follows, no animal had died by that day. Some entries were tested several times; their values stand side by side, smallest first. Additions like (4×) say how often a value occurs here. Some T/C values are marked as having no survivor count here; that says nothing about deaths at the dose.

Tested on: CD2F1 mice, L1210 leukemia ip, survival T/C
Experiment: NCI In Vivo Anticancer Drug Screen. Data for tumor model L1210 Leukemia (intraperitoneal) in CD2F1 (CDF1) mice
Conditions: T/C endpoint: mean survival time, higher T/C = longer survival
Summary of the method: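 Each value reflects a quotient of treated over vehicle control outcomes in mice with a transplanted tumor.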

[1] = dose: 200.0 mg/kg/injection, schedule: Q04DX002 (ip), vehicle: saline with Tween-80
[2] = dose: 100.0 mg/kg/injection, schedule: Q04DX003 (ip), vehicle: saline
[3] = dose: 200.0 mg/kg/injection, schedule: Q04DX003 (ip), vehicle: saline
[4] = dose: 400.0 mg/kg/injection, schedule: Q04DX003 (ip), vehicle: saline
[5] = dose: 100.0 mg/kg/injection, schedule: Q04DX003 (ip), vehicle: Klucel (hydroxypropylcellulose) (HPC)
[6] = dose: 50.0 mg/kg/injection, schedule: Q01DX009 (ip), vehicle: Klucel (hydroxypropylcellulose) (HPC)
[7] = dose: 100.0 mg/kg/injection, schedule: Q01DX009 (ip), vehicle: Klucel (hydroxypropylcellulose) (HPC)

With `CCCCN=C(N)C(N)=NCCCC.O=[N+]([O-])c1cc([N+](=O)[O-])c(O)c([N+](=O)[O-])c1` the T/C [1] was 93 % of control [survivor count not shown].
For `OOC1(OOC2(OO)CCCCC2)CCCCC1`, the T/C (dose: 12.5 mg/kg/injection, schedule: Q01DX009 (ip), vehicle: saline with Tween-80) was 102 % of control [survivor count not shown], the T/C (dose: 25.0 mg/kg/injection, schedule: Q01DX009 (ip), vehicle: saline with Tween-80) was 97 % of control [survivor count not shown] and the T/C (dose: 50.0 mg/kg/injection, schedule: Q01DX009 (ip), vehicle: saline with Tween-80) was 102 % of control [survivor count not shown].
For `O=C(OCCNCCCl)c1ccccc1`, the T/C (dose: 100.0 mg/kg/injection, schedule: Q01DX009 (ip), vehicle: saline) was 90 % of control, the T/C [2] was 103 % of control and the T/C (dose: 200.0 mg/kg/injection, schedule: Q01DX009 (ip), vehicle: saline) was 90 % of control. For the same compound, the T/C [3] was 97 % of control, the T/C (dose: 400.0 mg/kg/injection, schedule: Q01DX009 (ip), vehicle: saline) was 90 % of control and the T/C [4] was 97 % of control.
With `ICCN(CCI)c1ccc2ccccc2c1` the T/C (dose: 25.0 mg/kg/injection, schedule: Q04DX003 (ip), vehicle: Klucel (hydroxypropylcellulose) (HPC)) was 139 and 145 % of control [4 of 6 alive], the T/C (dose: 50.0 mg/kg/injection, schedule: Q04DX003 (ip), vehicle: Klucel (hydroxypropylcellulose) (HPC)) was 137 and 139 % of control and the T/C [5] was 102 and 119 % of control. The survivor count [5] was 6 of 6, the survivor count (dose: 200.0 mg/kg/injection, schedule: Q04DX003 (ip), vehicle: Klucel (hydroxypropylcellulose) (HPC)) was 5 of 6 and the survivor count (dose: 400.0 mg/kg/injection, schedule: Q04DX003 (ip), vehicle: Klucel (hydroxypropylcellulose) (HPC)) was 3 of 6.
In the case of `CCCCO[P+](=O)O`, the T/C [2] is reported as 102 % of control, the T/C [3] is reported as 102 % of control and the T/C [4] is reported as 94 % of control.
`O=[As](O)(O)c1ccc([As](=O)(O)O)cc1` was tested, and the T/C [6] was 97 % of control, the T/C [7] was 94 % of control and the survivor count (dose: 200.0 mg/kg/injection, schedule: Q01DX009 (ip), vehicle: Klucel (hydroxypropylcellulose) (HPC)) was 1 of 3.
With `CCP1(=O)Nc2ccc(Cl)cc2N1` (centres undefined) the T/C (dose: 100.0 mg/kg/injection, schedule: Q01DX001 (ip), vehicle: saline) was 100 % of control [survivor count not shown], the T/C (dose: 200.0 mg/kg/injection, schedule: Q01DX001 (ip), vehicle: saline) was 111 % of control [survivor count not shown] and the T/C (dose: 400.0 mg/kg/injection, schedule: Q01DX001 (ip), vehicle: saline) was 109 % of control [survivor count not shown].
`OC(Sc1ccc(Cl)cc1)C(Cl)(Cl)Cl` (centres undefined) was tested, and the T/C (dose: 100.0 mg/kg/injection, schedule: Q04DX003 (ip), vehicle: saline with Tween-80) was 97 % of control, the T/C (dose: 200.0 mg/kg/injection, schedule: Q04DX003 (ip), vehicle: saline with Tween-80) was 101 % of control and the T/C (dose: 400.0 mg/kg/injection, schedule: Q04DX003 (ip), vehicle: saline with Tween-80) was 92 % of control.
`COc1c(OC)c2c(C)c3ccccc3c(C)c2c2ccccc12.O=C1c2cc([N+](=O)[O-])ccc2-c2c1cc([N+](=O)[O-])cc2[N+](=O)[O-]` was tested, and the T/C (dose: 100.0 mg/kg/injection, schedule: Q04DX002 (ip), vehicle: saline with Tween-80) was 90 % of control, the T/C [1] was 90 % of control and the T/C (dose: 400.0 mg/kg/injection, schedule: Q04DX002 (ip), vehicle: saline with Tween-80) was 90 % of control.
With `CC(O)CNC(C)C.O=[N+]([O-])c1cc([N+](=O)[O-])c(O)c([N+](=O)[O-])c1` the T/C (dose: 75.0 mg/kg/injection, schedule: Q01DX001 (ip), vehicle: saline) was 93 % of control, the T/C (dose: 150.0 mg/kg/injection, schedule: Q01DX001 (ip), vehicle: saline) was 103 % of control and the survivor count (dose: 300.0 mg/kg/injection, schedule: Q01DX001 (ip), vehicle: saline) was 0 of 6.
`CS(=O)(=O)OC1CNP(=O)(N(CCCl)CCCl)OC1` (centres undefined) was tested, and the T/C (dose: 21.9 mg/kg/injection, schedule: Q01DX001 (ip), vehicle: DMSO) was 107 % of control, the T/C (dose: 29.0 mg/kg/injection, schedule: Q01DX001 (ip), vehicle: DMSO) was 94 % of control and the T/C (dose: 43.8 mg/kg/injection, schedule: Q01DX001 (ip), vehicle: DMSO) was 100 % of control. The T/C (dose: 58.0 mg/kg/injection, schedule: Q01DX001 (ip), vehicle: DMSO) was 94 % of control, the T/C (dose: 87.5 mg/kg/injection, schedule: Q01DX001 (ip), vehicle: DMSO) was 107 % of control and the T/C (dose: 116.0 mg/kg/injection, schedule: Q01DX001 (ip), vehicle: DMSO) was 105 % of control. For the same compound, the T/C (dose: 175.0 mg/kg/injection, schedule: Q01DX001 (ip), vehicle: DMSO) was 110 % of control, the T/C (dose: 232.0 mg/kg/injection, schedule: Q01DX001 (ip), vehicle: DMSO) was 107 % of control and the T/C (dose: 350.0 mg/kg/injection, schedule: Q01DX001 (ip), vehicle: DMSO) was 119 % of control. For the same compound, the T/C (dose: 464.0 mg/kg/injection, schedule: Q01DX001 (ip), vehicle: DMSO) was 117 % of control, the T/C (dose: 700.0 mg/kg/injection, schedule: Q01DX001 (ip), vehicle: DMSO) was 142 % of control and the T/C (dose: 928.0 mg/kg/injection, schedule: Q01DX001 (ip), vehicle: DMSO) was 134 % of control.
In the case of `NC(=O)Nc1ccc(N(CCCl)CCCl)cc1`, the T/C (dose: 0.39 mg/kg/injection, schedule: Q01DX009 (ip), vehicle: Klucel (hydroxypropylcellulose) (HPC)) is reported as 108 and 154 % of control, the T/C (dose: 0.78 mg/kg/injection, schedule: Q01DX009 (ip), vehicle: Klucel (hydroxypropylcellulose) (HPC)) is reported as 102, 103, 112 % of control and the T/C (dose: 1.56 mg/kg/injection, schedule: Q01DX009 (ip), vehicle: Klucel (hydroxypropylcellulose) (HPC)) is reported as 104, 112, 115 % of control. The T/C (dose: 3.12 mg/kg/injection, schedule: Q01DX009 (ip), vehicle: Klucel (hydroxypropylcellulose) (HPC)) was 102, 112, 115, 122 % of control, the T/C (dose: 6.25 mg/kg/injection, schedule: Q01DX009 (ip), vehicle: Klucel (hydroxypropylcellulose) (HPC)) was 112, 117, 119 % of control and the T/C (dose: 12.5 mg/kg/injection, schedule: Q01DX009 (ip), vehicle: Klucel (hydroxypropylcellulose) (HPC)) was 115, 124, 141 % of control. The T/C (dose: 25.0 mg/kg/injection, schedule: Q01DX009 (ip), vehicle: Klucel (hydroxypropylcellulose) (HPC)) was 90, 93, 97 % of control, the T/C [6] was 89 % of control and the survivor count [7] was 0 of 6.
In the case of `O=P1(N(CCCl)CCCl)NC(O)CCO1` (centres undefined), the T/C (dose: 25.0 mg/kg/injection, schedule: Q01DX001 (ip), vehicle: DMSO) is reported as 127 (2×) and 130 % of control, the T/C (dose: 31.3 mg/kg/injection, schedule: Q01DX001 (ip), vehicle: DMSO) is reported as 106 % of control and the T/C (dose: 50.0 mg/kg/injection, schedule: Q01DX001 (ip), vehicle: DMSO) is reported as 125, 128, 134 % of control. The T/C (dose: 62.5 mg/kg/injection, schedule: Q01DX001 (ip), vehicle: DMSO) was 100 % of control, the T/C (dose: 100.0 mg/kg/injection, schedule: Q01DX001 (ip), vehicle: DMSO) was 140 (2×) and 152 % of control and the T/C (dose: 125.0 mg/kg/injection, schedule: Q01DX001 (ip), vehicle: DMSO) was 105 % of control. The T/C (dose: 200.0 mg/kg/injection, schedule: Q01DX001 (ip), vehicle: DMSO) was 178, 263, 313 % of control, the T/C (dose: 250.0 mg/kg/injection, schedule: Q01DX001 (ip), vehicle: DMSO) was 106 % of control and the T/C (dose: 266.0 mg/kg/injection, schedule: Q01DX001 (ip), vehicle: DMSO) was 96 % of control. For the same compound, the T/C (dose: 400.0 mg/kg/injection, schedule: Q01DX001 (ip), vehicle: DMSO, evaluated on day 25) was 114 % of control, the T/C (dose: 400.0 mg/kg/injection, schedule: Q01DX001 (ip), vehicle: DMSO, evaluated on day 60) was 606, 644, 681 % of control and the T/C (dose: 500.0 mg/kg/injection, schedule: Q01DX001 (ip), vehicle: DMSO) was 114 % of control. The T/C (dose: 600.0 mg/kg/injection, schedule: Q01DX001 (ip), vehicle: DMSO) was 121 % of control and the survivor count (dose: 900.0 mg/kg/injection, schedule: Q01DX001 (ip), vehicle: DMSO) was 3 of 6.
